Assay results reported in PubChem BioAssay AID248 (DTP/NCI, 2004).
The list does not hold the whole screen: it is rich in T/C values a quarter to a half above the control, in often repeated tests (any T/C) and in doses without a T/C. Other doses and runs of a compound stand elsewhere. T/C gives the treated animals as a percentage of the vehicle group. Some doses have a count of surviving animals in place of a T/C: the source holds a T/C of zero for them, seemingly a mark for toxic or unscored doses. Some survivor counts are full or nearly so, which does not show that the dose was tolerated: the source hardly ever lists a survival T/C far under the control, and the zero likely stands for such cases as well. Counts of survivors are from the toxicity check (mostly the fifth day) where no day follows; animals may have died later. Schedule codes are those of the source, taken here to give the interval after Q, in days (D) or hours (H), and the number of doses after X. Some molecules as drawn cover several salts, stereoisomers or complexes of the source; a dose is that of the sample tested. Some entries hold several experiments; the results are listed from low to high. Some schedules carry Z or #; the key to these is not given. For survival time, the PubChem record calls one and a half times the control and up active, and a quarter to a half above the control has no call in these data; cut-offs in other NCI protocols can differ.

System: L1210 leukemia ip in BDF1 mice, survival T/C
Experiment: NCI In Vivo Anticancer Drug Screen. Data for tumor model L1210 Leukemia (intraperitoneal) in B6D2F1 (BDF1) mice
Conditions: T/C endpoint: mean survival time, higher T/C = longer survival
[1] = dose: 200.0 mg/kg/injection, schedule: Q01DX009 (ip), vehicle: saline
[2] = dose: 400.0 mg/kg/injection, schedule: Q01DX001 (ip), vehicle: saline
[3] = dose: 200.0 mg/kg/injection, schedule: Q04DX003 (ip), vehicle: saline
[4] = dose: 100.0 mg/kg/injection, schedule: Q01DX009 (ip), vehicle: saline with Tween-80
[5] = dose: 200.0 mg/kg/injection, schedule: Q04DX003 (ip), vehicle: saline with Tween-80
[6] = dose: 400.0 mg/kg/injection, schedule: Q04DX003 (ip), vehicle: saline with Tween-80
[7] = dose: 200.0 mg/kg/injection, schedule: Q01DX009 (ip), vehicle: Klucel (hydroxypropylcellulose) (HPC)
[8] = dose: 200.0 mg/kg/injection, schedule: Q01DX009 (ip), vehicle: saline with Tween-80
[9] = dose: 400.0 mg/kg/injection, schedule: Q04DX003 (ip), vehicle: saline
[10] = dose: 100.0 mg/kg/injection, schedule: Q04DX003 (ip), vehicle: saline

C1CCN(c2c3c(nc4nnnn24)CCC3)CC1
survivor count (dose: 400.0 mg/kg/injection, schedule: Q01DX001 (ip), vehicle: other): 0 of 6

C=CC[P+](C)(c1ccccc1)c1ccccc1
survivor count (dose: 6.25 mg/kg/injection, schedule: Q01DX009 (ip), vehicle: saline): 1 of 3 | survivor count (dose: 12.5 mg/kg/injection, schedule: Q01DX009 (ip), vehicle: saline): 0 of 3 | survivor count (dose: 25.0 mg/kg/injection, schedule: Q01DX009 (ip), vehicle: saline): 0 of 3 | survivor count (dose: 50.0 mg/kg/injection, schedule: Q01DX009 (ip), vehicle: saline): 0 of 3 | survivor count (dose: 100.0 mg/kg/injection, schedule: Q01DX009 (ip), vehicle: saline): 0 of 3 | survivor count [1]: 0 of 3

O=C(Nc1cccc(C2=NCCCN2)c1)Nc1cc(C(=O)Nc2ccc(C3=NCCCN3)cc2)ccc1C(=O)Nc1ccc(C2=NCCCN2)cc1
T/C (dose: 7.5 mg/kg/injection, schedule: Q01DX Z (ip), vehicle: saline): 137 and 141 % of control | survivor count (dose: 15.0 mg/kg/injection, schedule: Q01DX Z (ip), vehicle: saline): 3 of 6 | survivor count (dose: 30.0 mg/kg/injection, schedule: Q01DX Z (ip), vehicle: saline): 0 of 6 | survivor count (dose: 60.0 mg/kg/injection, schedule: Q01DX Z (ip), vehicle: saline): 0 of 6 | survivor count (dose: 120.0 mg/kg/injection, schedule: Q01DX Z (ip), vehicle: saline): 0 of 6

C=CCSc1ccc(Cl)cc1
survivor count [2]: 2 of 6

CCOc1ccc(NC(=O)Nc2cccc3ccccc23)cc1
survivor count (dose: 200.0 mg/kg/injection, schedule: Q04DX003 (ip), vehicle: Klucel (hydroxypropylcellulose) (HPC)): 1 of 6

OC(CNc1ccc(Cl)cc1)CN1CCCCC1 (stereo not drawn)
survivor count [3]: 2 of 6 | survivor count [2]: 3 of 6

Cc1ccc2c3nc4ccccc4c-3csc2c1
survivor count (dose: 50.0 mg/kg/injection, schedule: Q04DX003 (ip), vehicle: saline): 6 of 6 | survivor count (dose: 80.0 mg/kg/injection, schedule: Q01DX009 (ip), vehicle: saline): 3 of 6 and 6 of 6 | survivor count (dose: 100.0 mg/kg/injection, schedule: Q04DX003 (ip), vehicle: acetone): 4 of 6 | survivor count (dose: 200.0 mg/kg/injection, schedule: Q04DX003 (ip), vehicle: acetone): 0 of 6 | survivor count (dose: 400.0 mg/kg/injection, schedule: Q04DX003 (ip), vehicle: acetone): 1 of 6

CCOC(=O)c1c[nH]c2ccc(N(CCCl)CCCl)cc12
T/C (dose: 20.0 mg/kg/injection, schedule: Q01DX001 (ip), vehicle: carboxymethylcellulose (CMC)): 125 % of control | T/C (dose: 40.0 mg/kg/injection, schedule: Q01DX001 (ip), vehicle: carboxymethylcellulose (CMC)): 125 % of control | T/C (dose: 80.0 mg/kg/injection, schedule: Q01DX001 (ip), vehicle: carboxymethylcellulose (CMC)): 127 % of control

CC(=O)Nc1ccc(/C=N/N=C(N)N)cc1
survivor count (dose: 250.0 mg/kg/injection, schedule: Q01DX Z (ip), vehicle: carboxymethylcellulose (CMC)): 3 of 6 | survivor count (dose: 500.0 mg/kg/injection, schedule: Q01DX Z (ip), vehicle: carboxymethylcellulose (CMC)): 1 of 6

Cc1ccc(S(=O)(=O)OCCN(CCO)c2cn(C(c3ccccc3)(c3ccccc3)c3ccccc3)c(=O)n(C(c3ccccc3)(c3ccccc3)c3ccccc3)c2=O)cc1
survivor count [2]: 4 of 4

CCCCCCOC(CN)C(Cl)(Cl)Cl (stereo not drawn)
survivor count [4]: 1 of 6 | survivor count (dose: 100.0 mg/kg/injection, schedule: Q04DX003 (ip), vehicle: saline with Tween-80): 4 of 6 | survivor count [5]: 0 of 6 | survivor count [6]: 0 of 6

CN(C)CC(=O)c1ccc(Cl)cc1
survivor count [1]: 0 of 3

Cc1nnc([N+](=O)[O-])s1
survivor count (dose: 100.0 mg/kg/injection, schedule: Q01DX009 (ip), vehicle: Klucel (hydroxypropylcellulose) (HPC)): 0 of 6 | survivor count [7]: 0 of 6 | survivor count (dose: 400.0 mg/kg/injection, schedule: Q01DX009 (ip), vehicle: Klucel (hydroxypropylcellulose) (HPC)): 0 of 6

C[n+]1cccc(C(=O)N/N=C/C=C/c2ccccc2)c1
survivor count [8]: 1 of 3

Cc1cc(C)c(C(=O)C(=S)N2CCOCC2)c(C)c1
survivor count (dose: 100.0 mg/kg/injection, schedule: Q01DX009 (ip), vehicle: acetone): 6 of 6

N#CC1(Nc2ccc(-c3ccc(Cl)cc3)cc2)CCCC1
survivor count (dose: 400.0 mg/kg/injection, schedule: Q01DX001 (ip), vehicle: carboxymethylcellulose (CMC)): 4 of 4

CC(C)CC(CC(C)C)NCC(C)OC(=O)c1ccc(N)cc1 (stereo not drawn)
survivor count (dose: 50.0 mg/kg/injection, schedule: Q01DX009 (ip), vehicle: saline with Tween-80): 5 of 6 | survivor count [4]: 1 of 6 | survivor count (dose: 100.0 mg/kg/injection, schedule: Q04DX003 (ip), vehicle: water): 2 of 6 | survivor count (dose: 150.0 mg/kg/injection, schedule: Q01DX001 (ip), vehicle: other): 1 of 6 and 2 of 6 | survivor count [8]: 0 of 6 | survivor count [3]: 0 of 6 | survivor count (dose: 200.0 mg/kg/injection, schedule: Q04DX003 (ip), vehicle: water): 0 of 6 | survivor count (dose: 300.0 mg/kg/injection, schedule: Q01DX001 (ip), vehicle: other): 0 of 6 and 1 of 6 | survivor count [9]: 0 of 6 | survivor count (dose: 400.0 mg/kg/injection, schedule: Q04DX003 (ip), vehicle: water): 0 of 6

CCCCc1ccc(C(=O)O)nc1.[Cu+2]
survivor count (dose: 40.0 mg/kg/injection, schedule: Q01DX001 (ip), vehicle: saline): 2 of 6 | survivor count (dose: 80.0 mg/kg/injection, schedule: Q01DX001 (ip), vehicle: saline): 1 of 6

CN(C)CCOCCOC(=O)N1c2ccccc2Sc2ccccc21
survivor count [1]: 0 of 6 | survivor count [3]: 0 of 4 | survivor count (dose: 400.0 mg/kg/injection, schedule: Q01DX009 (ip), vehicle: saline): 0 of 6 | survivor count [9]: 0 of 4

CCOP(=S)(NN=C1CCCC1)OCC
survivor count [2]: 2 of 4

COC(=O)CCC(=O)CCC(C)C
survivor count [5]: 0 of 6

Cc1cc2oc(=O)c3c(c2c(O)c1CN1CCN(C)CC1)CCCC3
survivor count [2]: 1 of 6

CC1=NN(c2ccc(S(=O)(=O)O)cc2)C(=O)/C1=C/c1ccc(Cl)cc1
survivor count [10]: 6 of 6

CC(=O)Nc1nccs1
survivor count [7]: 3 of 6 | survivor count (dose: 400.0 mg/kg/injection, schedule: Q04DX003 (ip), vehicle: Klucel (hydroxypropylcellulose) (HPC)): 1 of 6

CCCCCC[P+](c1ccccc1)(c1ccccc1)c1ccccc1
survivor count [10]: 0 of 6 | survivor count [3]: 0 of 6 | survivor count [9]: 0 of 6

[N-]=Cc1c(O)cccc1[N+](=O)[O-].[N-]=Cc1cc([N+](=O)[O-])ccc1O.[Ni+2]
survivor count [6]: 4 of 6

CCCCCC(=O)N1CCCCC1C (stereo not drawn)
survivor count (dose: 200.0 mg/kg/injection, schedule: Q01DX009 (ip), vehicle: carboxymethylcellulose (CMC)): 0 of 3 and 1 of 6 | survivor count (dose: 200.0 mg/kg/injection, schedule: Q04DX002 (ip), vehicle: carboxymethylcellulose (CMC)): 3 of 3 | survivor count (dose: 400.0 mg/kg/injection, schedule: Q04DX002 (ip), vehicle: carboxymethylcellulose (CMC)): 0 of 3

CCOC(=O)C(C(=O)OCC)N(CC)CC
survivor count [7]: 5 of 6
